Test results published in the supplement of paper PMC5949888.
Most values lie at the floor of the assay. Slopes are relative: functional sequences can read slightly below zero.

What follows are substances tested on Saccharomyces cerevisiae PS128 hsf1 delta, HSF1(1-493) fusion (assay: growth estimate (transactivation domain function in HSF1 fusion, heat-shock survival) (a.u. (slope of normalised read count over time)); higher = stronger growth at 37°C, i.e. more transactivation activity). Settings: library: random library.

| Substance | growth estimate |
| --- | --- |
| SRQIGEIIDSSRQAHTL | < -0.25 |
| SRQIQTSKLRGSRRVKI | < -0.25 |
| SRRAF | < -0.25 |
| SRRAYLLW | < -0.25 |
| SRRCPFNRFGKARPTFNICL | -0.25 |
| SRRFRPTLRGLHVSHKK | < -0.25 |
| SRRLLLMSWPRPVAVWAPAS | < -0.25 |
| SRRPRSLRGTVVSVRGRVRV | < -0.25 |
| SRRPYRGPHARAGNDMKRR | < -0.25 |
| SRRR | < -0.25 |
| SRRRRCMGPAAV | < -0.25 |
| SRRRRHHSTEGRL | < -0.25 |
| SRRRWWGPRHCFCVRKAELH | < -0.25 |
| SRRSADHMRSRLYGIAAGVS | < -0.25 |
| SRRTKENRYTRMEVM | < -0.25 |
| SRRVGARHRAGGSAP | < -0.25 |
| SRRVHDGSGYTSVIKARINS | < -0.25 |
| SRSASGLRQRRNLQGTLAGG | < -0.25 |
| SRSC | < -0.25 |
| SRSIRGPK | < -0.25 |
| SRSITDGPVCSVN | < -0.25 |
| SRSQLFGITKVYLDDV | -0.239 |
| SRSRQRNSV | < -0.25 |
| SRV | < -0.25 |
| SRVLVPGQ | < -0.25 |

Two entries from above in another layout.
Substance	growth estimate
SRSIRGPK	< -0.25
SRSITDGPVCSVN	< -0.25

(cont.)

| Substance | growth estimate |
| --- | --- |
| SRVMATRSPFGGVFEGQTVL | < -0.25 |
| SRVPSIDKFR | < -0.25 |
| SRVRLRGCGNTASRSGHDR | -0.172 |
| SRVSR | < -0.25 |
| SRVWDGNSSRRMASPTGSHR | < -0.25 |
| SRYARITSVANI | < -0.25 |
| SRYGWEAWE | 0.307 |
| SRYLIGTAQLPFTTLK | < -0.25 |
| SSAGRRFLRWKGRHDRFGVK | < -0.25 |
| SSAIEFYL | < -0.25 |
| SSAVPNGRF | < -0.25 |
| SSAYAFEKSGRARPDKHSAG | < -0.25 |
| SSCCPRWIRSIQ | < -0.25 |
| SSCLVRGAQVKISERLKDTG | < -0.25 |
| SSCLW | < -0.25 |
| SSCPALRLNGPPSPIGQ | < -0.25 |
| SSCRIKQDLPWSLAAIPRGC | < -0.25 |
| SSCT | < -0.25 |
| SSCVKCAGITCNVSRACEGL | < -0.25 |
| SSDV | < -0.25 |
| SSDYAESNTGRLISQRPPAP | < -0.25 |
| SSEPRAGPGQMGTR | < -0.25 |
| SSETRRRLPAVWLSPIATGG | < -0.25 |
| SSEVRHAT | < -0.25 |
| SSFACHMVLKSNGN | < -0.25 |

| Substance | growth estimate |
| --- | --- |
| SSFSATSN | < -0.25 |
| SSFSE | -0.25 |
| SSFSGRFDRCTYSNHGFLGR | < -0.25 |
| SSFVKPIHVRT | < -0.25 |
| SSFYINHLEVLGLRKFTVIA | < -0.25 |
| SSGASKGLK | < -0.25 |
| SSGGAERHKGFDGM | < -0.25 |
| SSGGTCIETG | < -0.25 |
| SSGIYCAACKAGWRPFITGQ | < -0.25 |
| SSGNCASPHGSRSPILVVRS | < -0.25 |
| SSGRAVGPKGTTSAK | < -0.25 |
| SSHAKQDSTEDSTGGVLAIL | < -0.25 |
| SSHQEL | < -0.25 |
| SSHVALQRGTISPDTPMLCP | < -0.25 |
| SSIICSIDPSDVGWNVPRAS | < -0.25 |
| SSILSCIGDPGRL | < -0.25 |
| SSIYVRSQILGTGMKNGEHS | < -0.25 |
| SSKDKNSQLMQPKENSEQRR | < -0.25 |
| SSKFSSRGSYSLLGIVRNG | < -0.25 |
| SSKGGQVSGLSRR | < -0.25 |
| SSKLWNLHRLTAKGVALSFL | < -0.25 |
| SSKTFISRR | < -0.25 |
| SSLAHLITSKIRGDLFIRPL | < -0.25 |
| SSLAVPLENAPRCVLVYIK | < -0.25 |
| SSLDGGEVPKDSILSRSFFV | -0.118 |

5 entries picked at random from those above, as already listed:

| Substance | growth estimate |
| --- | --- |
| SSKTFISRR | < -0.25 |
| SSFSE | -0.25 |
| SSFYINHLEVLGLRKFTVIA | < -0.25 |
| SSFSATSN | < -0.25 |
| SSILSCIGDPGRL | < -0.25 |

Continued.

| Substance | growth estimate |
| --- | --- |
| SSLMNKVSGPL | < -0.25 |
| SSLNSFGL | < -0.25 |
| SSLP | < -0.25 |
| SSLSCFGHRAN | < -0.25 |
| SSLSQNVGMESRKRKPGFTS | < -0.25 |
| SSMQAPTSLSQSSE | < -0.25 |
| SSNLVEAFVRDRATYRKDLP | < -0.25 |
| SSP | -0.192 |
| SSPA | < -0.25 |
| SSPGNMF | < -0.25 |
| SSPIRICSSLAGSDYGPP | < -0.25 |
| SSPLRRMNVALLMFLPACLN | < -0.25 |
| SSPQKTWELRKRTCG | < -0.25 |
| SSPSGRLPGCPCGRWITYI | < -0.25 |
| SSPSRTRVM | < -0.25 |
| SSPTMGCAVMGVLRPARNQS | < -0.25 |
| SSPVLSL | < -0.25 |
| SSQHA | < -0.25 |
| SSRDARDESTTNAVQSAEKS | < -0.25 |
| SSRGTALQEHR | < -0.25 |
| SSRHFAIIN | < -0.25 |
| SSRLWLNVEQGARME | < -0.25 |
| SSRPEPRRPWARRTNGESNL | < -0.25 |
| SSRPGGVIAFEWEVLVCGAA | < -0.25 |
